Assay results: patent publication US12578273B2, “Ph-reversible leuco-BODIPY probe for in situ visualization of extracellular vesicles and their secretion from living cells” (The Chinese University of Hong Kong, priority 2021, dated 2026)

Experiment: Confocal imaging of phenol red-free medium with dye in the absence of seeded cells (false positive signals)

CN(C)CCNC(=O)CCc1ccc2n1[B-](F)(F)[N+]1=C(c3ccc[nH]3)C=CC1=C2 [LysoTracker™ Red, reference compound]
fluorescence signals in medium without cells (50 nM dye, 3 h post-incubation): false positive dot-like or speck-like signals | fluorescence signals in medium without cells (2 μM dye, 3 h post-incubation): severe background emission

CCOC(=O)C(=Cc1ccc2n1[B-](F)(F)n1c(C=C(C(=O)OCC)C(=O)OCC)ccc1C2(OC)c1ccncc1)C(=O)OCC [leuco-BODIPY]
fluorescence signals in medium without cells (2 μM dye, 3 h post-incubation): no detectable fluorescence | fluorescence signals in medium without cells (2 μM dye, 15 h post-incubation): limited signals
